Data as given in PubChem BioAssay AID1224828 (NIAID, 2016).
Purpose: 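Find genes required for NF-kappaB p65 moving into the nucleus after LPS in mouse macrophages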 (primary screen). Cells: mouse RAW264.7 G9 macrophage reporter cells (GFP-p65, Tnf promoter-mCherry). Reagent: siRNA pool against mouse genes, 100 nM. Time to read-out: 2 days siRNA transfection, then 40 min LPS before fixation. Challenge: LPS (Salmonella minnesota R595) at 10 ng/ml. Read-out: 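Microscopy ratio of nuclear to perinuclear-ring GFP-p65 signal, scaled to the plate median; gene score is the average of two replicate robust z-scores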. Direction: p65 translocation robust z-score: higher = more nuclear NF-kappaB p65 after LPS than the plate median; nuclear/cytoplasmic p65 ratio: higher = more nuclear NF-kappaB p65. Hit rule: 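Called active when z exceeds 3.3 or falls under -1.56 (median of Tlr4 controls), giving activity score of at least 50; no calls for control wells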. Meaning of the calls: active = hit (p65 shift raised or lowered); inactive = no clear change.
Shown is one part, drawn at random, of about 17,000 reagents. Over the whole deposit, 762 (4.5%) were called active. 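Active calls include both raised and lowered p65 entry, mostly lowered; wells with fewer than 50 cells lack a z-score.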 The raw values are shown without normalisation. Reagent sequences are not shown.

With Calcb, how do the results read?
p65 translocation robust z-score: -0.34; nuclear/cytoplasmic p65 ratio, rep 1: 1.57; nuclear/cytoplasmic p65 ratio, rep 2: 1.7; low cell count flag: enough cells to score; outcome: inactive

With Slitrk6, what was measured?
nuclear/cytoplasmic p65 ratio, rep 1: 1.64; nuclear/cytoplasmic p65 ratio, rep 2: 1.32; low cell count flag: fewer than 50 cells per well; well left out of scoring; outcome: inactive

With Krt10, what was measured?
p65 translocation robust z-score: 0.09; nuclear/cytoplasmic p65 ratio, rep 1: 1.47; nuclear/cytoplasmic p65 ratio, rep 2: 1.41; low cell count flag: enough cells to score; outcome: inactive

With Prss48, what does the deposit list?
nuclear/cytoplasmic p65 ratio, rep 1: 2.02; nuclear/cytoplasmic p65 ratio, rep 2: 1.63; low cell count flag: fewer than 50 cells per well; well left out of scoring; outcome: inactive

With Pcdhb14, what does the deposit list?
p65 translocation robust z-score: 0.67; nuclear/cytoplasmic p65 ratio, rep 1: 1.54; nuclear/cytoplasmic p65 ratio, rep 2: 1.32; low cell count flag: enough cells to score; outcome: inactive

With Or56b35, what was measured?
nuclear/cytoplasmic p65 ratio, rep 1: 1.35; nuclear/cytoplasmic p65 ratio, rep 2: 1.16; low cell count flag: fewer than 50 cells per well; well left out of scoring; outcome: inactive

What is on record for Zfp119a?
nuclear/cytoplasmic p65 ratio, rep 1: 1.21; nuclear/cytoplasmic p65 ratio, rep 2: 1.3; low cell count flag: fewer than 50 cells per well; well left out of scoring; outcome: inactive

For Ppp1r12b, how do the results read?
p65 translocation robust z-score: 0.57; nuclear/cytoplasmic p65 ratio, rep 1: 1.51; nuclear/cytoplasmic p65 ratio, rep 2: 1.89; low cell count flag: enough cells to score; outcome: inactive

Which result is listed for Mei4?
nuclear/cytoplasmic p65 ratio, rep 1: 1.16; nuclear/cytoplasmic p65 ratio, rep 2: 1.16; low cell count flag: fewer than 50 cells per well; well left out of scoring; outcome: inactive

With Tpt1, what does the deposit list?
nuclear/cytoplasmic p65 ratio, rep 1: 1.7; nuclear/cytoplasmic p65 ratio, rep 2: 1.35; low cell count flag: fewer than 50 cells per well; well left out of scoring; outcome: inactive

For A030003K21Rik, how do the results read?
nuclear/cytoplasmic p65 ratio, rep 1: 1.18; nuclear/cytoplasmic p65 ratio, rep 2: 1.21; low cell count flag: fewer than 50 cells per well; well left out of scoring; outcome: inactive

What did the screen give for Cd248?
p65 translocation robust z-score: -1.68; nuclear/cytoplasmic p65 ratio, rep 1: 1.39; nuclear/cytoplasmic p65 ratio, rep 2: 1.45; low cell count flag: enough cells to score; outcome: active

With Rab39b, what does the deposit list?
p65 translocation robust z-score: -0.25; nuclear/cytoplasmic p65 ratio, rep 1: 1.36; nuclear/cytoplasmic p65 ratio, rep 2: 1.17; low cell count flag: enough cells to score; outcome: inactive

How did the screen score Ccnt1?
p65 translocation robust z-score: -1.31; nuclear/cytoplasmic p65 ratio, rep 1: 1.25; nuclear/cytoplasmic p65 ratio, rep 2: 1.25; low cell count flag: enough cells to score; outcome: inactive

What is on record for Bmpr2?
p65 translocation robust z-score: -1.63; nuclear/cytoplasmic p65 ratio, rep 1: 1.46; nuclear/cytoplasmic p65 ratio, rep 2: 1.16; low cell count flag: enough cells to score; outcome: active

With Tgfb2, what does the deposit list?
p65 translocation robust z-score: 0.77; nuclear/cytoplasmic p65 ratio, rep 1: 1.68; nuclear/cytoplasmic p65 ratio, rep 2: 1.58; low cell count flag: enough cells to score; outcome: inactive

For Psen1, how do the results read?
p65 translocation robust z-score: -0.6; nuclear/cytoplasmic p65 ratio, rep 1: 1.4; nuclear/cytoplasmic p65 ratio, rep 2: 1.34; low cell count flag: enough cells to score; outcome: inactive

What is on record for Or4p19?
p65 translocation robust z-score: -0.96; nuclear/cytoplasmic p65 ratio, rep 1: 1.6; nuclear/cytoplasmic p65 ratio, rep 2: 1.36; low cell count flag: enough cells to score; outcome: inactive

What did the screen give for Ctps2?
p65 translocation robust z-score: 1.45; nuclear/cytoplasmic p65 ratio, rep 1: 1.61; nuclear/cytoplasmic p65 ratio, rep 2: 1.62; low cell count flag: enough cells to score; outcome: inactive

With Npepps, how do the results read?
p65 translocation robust z-score: 0.77; nuclear/cytoplasmic p65 ratio, rep 1: 1.71; nuclear/cytoplasmic p65 ratio, rep 2: 1.41; low cell count flag: enough cells to score; outcome: inactive

How did the screen score Zfp385b?
p65 translocation robust z-score: -0.53; nuclear/cytoplasmic p65 ratio, rep 1: 1.41; nuclear/cytoplasmic p65 ratio, rep 2: 1.45; low cell count flag: enough cells to score; outcome: inactive
